Experimental data as given in the supplement of paper PMC8612539.
≈ marks a conversion by molar mass, not a printed value. The source gives many values for each of these; only a part stands here.

Tested on: Escherichia coli
Experiment: minimum inhibitory concentration (MIC)
Protocol: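 Broth microdilution MIC (Sensititre BOPO7F bovine plate, CLSI methods) of 19 antimicrobials against field isolates of P. multocida, M. haemolytica, H. somni (deep nasopharyngeal swabs) and E. coli, Enterococcus spp. (rectal swabs) from weaned dairy heifers. Incubation 16-24 h at 35 C. MIC is the lowest concentration preventing visible growth. Values with <= or > lie at the tested range limits. Trimethoprim-sulfamethoxazole is given as the trimethoprim component of a 1:19 mixture.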

CC[C@H]1OC(=O)C[C@@H](O)[C@H](C)[C@@H](O[C@@H]2O[C@H](C)[C@@H](O[C@H]3C[C@@](C)(O)[C@@H](O)[C@H](C)O3)[C@H](N(C)C)[C@H]2O)[C@@H](CC=O)C[C@@H](C)C(=O)/C=C/C(C)=C/[C@@H]1CO[C@@H]1O[C@H](C)[C@@H](O)[C@@H](OC)[C@H]1OC [Tylosin]
Conditions | minimum inhibitory concentration [µg/mL]
isolate (source animal id): 1 | > 32
isolate (source animal id): 2 | > 32
isolate (source animal id): 3 | > 32
isolate (source animal id): 4 | > 32
isolate (source animal id): 5 | > 32
isolate (source animal id): 6 | > 32
isolate (source animal id): 7 | > 32
isolate (source animal id): 17 | > 32
isolate (source animal id): 18 | > 32
isolate (source animal id): 19 | > 32
isolate (source animal id): 20 | > 32
isolate (source animal id): 21 | > 32
isolate (source animal id): 22 | > 32
isolate (source animal id): 23 | > 32
isolate (source animal id): 24 | > 32
isolate (source animal id): 25 | > 32
isolate (source animal id): 26 | > 32
isolate (source animal id): 27 | > 32
isolate (source animal id): 28 | > 32
isolate (source animal id): 29 | > 32
isolate (source animal id): 30 | > 32
isolate (source animal id): 31 | > 32
isolate (source animal id): 32 | > 32
isolate (source animal id): 33 | > 32
isolate (source animal id): 34 | > 32
isolate (source animal id): 35 | > 32
isolate (source animal id): 36 | > 32
isolate (source animal id): 37 | > 32
isolate (source animal id): 38 | > 32
isolate (source animal id): 39 | > 32
isolate (source animal id): 40 | > 32
isolate (source animal id): 41 | > 32
isolate (source animal id): 42 | > 32
isolate (source animal id): 43 | > 32
isolate (source animal id): 44 | > 32
isolate (source animal id): 45 | > 32
isolate (source animal id): 46 | > 32
isolate (source animal id): 47 | > 32
isolate (source animal id): 48 | > 32
isolate (source animal id): 49 | > 32
isolate (source animal id): 50 | > 32
isolate (source animal id): 51 | > 32
isolate (source animal id): 52 | > 32
isolate (source animal id): 53 | > 32
isolate (source animal id): 54 | > 32
isolate (source animal id): 55 | > 32
isolate (source animal id): 56 | > 32
isolate (source animal id): 57 | > 32
isolate (source animal id): 58 | > 32
isolate (source animal id): 59 | > 32
isolate (source animal id): 60 | > 32
isolate (source animal id): 61 | > 32
isolate (source animal id): 62 | > 32
isolate (source animal id): 63 | > 32
isolate (source animal id): 64 | > 32
isolate (source animal id): 65 | > 32
isolate (source animal id): 66 | > 32
isolate (source animal id): 67 | > 32
isolate (source animal id): 68 | > 32
isolate (source animal id): 69 | > 32
isolate (source animal id): 70 | > 32
isolate (source animal id): 71 | > 32
isolate (source animal id): 72 | > 32
isolate (source animal id): 73 | > 32
isolate (source animal id): 74 | > 32
isolate (source animal id): 75 | > 32
isolate (source animal id): 76 | > 32
isolate (source animal id): 77 | > 32
isolate (source animal id): 78 | > 32
isolate (source animal id): 79 | > 32
isolate (source animal id): 80 | > 32
isolate (source animal id): 81 | > 32
isolate (source animal id): 82 | > 32
isolate (source animal id): 83 | > 32
isolate (source animal id): 84 | > 32
isolate (source animal id): 85 | > 32
isolate (source animal id): 86 | > 32
isolate (source animal id): 87 | > 32
isolate (source animal id): 88 | > 32
isolate (source animal id): 89 | > 32
isolate (source animal id): 90 | > 32
isolate (source animal id): 91 | > 32
isolate (source animal id): 92 | > 32
isolate (source animal id): 93 | > 32
isolate (source animal id): 94 | > 32
isolate (source animal id): 95 | > 32
isolate (source animal id): 96 | > 32
isolate (source animal id): 97 | > 32
isolate (source animal id): 189 | > 32
isolate (source animal id): 190 | > 32
isolate (source animal id): 191 | > 32
isolate (source animal id): 192 | > 32
isolate (source animal id): 193 | > 32
isolate (source animal id): 194 | > 32
isolate (source animal id): 195 | > 32
isolate (source animal id): 196 | > 32
isolate (source animal id): 197 | > 32
isolate (source animal id): 198 | > 32
isolate (source animal id): 199 | > 32
isolate (source animal id): 200 | > 32
isolate (source animal id): 201 | > 32
isolate (source animal id): 202 | > 32
isolate (source animal id): 203 | > 32
isolate (source animal id): 204 | > 32
isolate (source animal id): 205 | > 32
isolate (source animal id): 206 | > 32
isolate (source animal id): 207 | > 32
isolate (source animal id): 208 | > 32
isolate (source animal id): 209 | > 32
isolate (source animal id): 210 | > 32
isolate (source animal id): 211 | > 32
isolate (source animal id): 212 | > 32
isolate (source animal id): 213 | > 32
isolate (source animal id): 214 | > 32
isolate (source animal id): 215 | > 32
isolate (source animal id): 216 | > 32
isolate (source animal id): 217 | > 32
isolate (source animal id): 218 | > 32
isolate (source animal id): 219 | > 32
isolate (source animal id): 220 | > 32
isolate (source animal id): 221 | > 32
isolate (source animal id): 222 | > 32
isolate (source animal id): 223 | > 32
isolate (source animal id): 224 | > 32
isolate (source animal id): 225 | > 32
isolate (source animal id): 226 | > 32
isolate (source animal id): 227 | > 32
isolate (source animal id): 228 | > 32
isolate (source animal id): 229 | > 32
isolate (source animal id): 230 | > 32
isolate (source animal id): 231 | > 32
isolate (source animal id): 232 | > 32
isolate (source animal id): 233 | > 32
isolate (source animal id): 234 | > 32
isolate (source animal id): 235 | > 32
isolate (source animal id): 236 | > 32
isolate (source animal id): 237 | > 32
isolate (source animal id): 238 | > 32
isolate (source animal id): 239 | > 32
isolate (source animal id): 240 | > 32
isolate (source animal id): 241 | > 32
isolate (source animal id): 242 | > 32
isolate (source animal id): 243 | > 32
isolate (source animal id): 244 | > 32
isolate (source animal id): 245 | > 32
isolate (source animal id): 246 | > 32
isolate (source animal id): 247 | > 32
isolate (source animal id): 248 | > 32
isolate (source animal id): 249 | > 32
isolate (source animal id): 250 | > 32
isolate (source animal id): 251 | > 32
isolate (source animal id): 252 | > 32
isolate (source animal id): 253 | > 32
isolate (source animal id): 254 | > 32
isolate (source animal id): 255 | > 32
isolate (source animal id): 256 | > 32
isolate (source animal id): 257 | > 32
isolate (source animal id): 258 | > 32
isolate (source animal id): 259 | > 32
isolate (source animal id): 260 | > 32
isolate (source animal id): 261 | > 32
isolate (source animal id): 262 | > 32
isolate (source animal id): 263 | > 32
isolate (source animal id): 264 | > 32
isolate (source animal id): 265 | > 32
isolate (source animal id): 266 | > 32
isolate (source animal id): 267 | > 32
isolate (source animal id): 268 | > 32
isolate (source animal id): 269 | > 32
isolate (source animal id): 270 | > 32
isolate (source animal id): 271 | > 32
isolate (source animal id): 272 | > 32
isolate (source animal id): 273 | > 32
isolate (source animal id): 274 | > 32
isolate (source animal id): 275 | > 32
isolate (source animal id): 276 | > 32
isolate (source animal id): 277 | > 32
isolate (source animal id): 278 | > 32
isolate (source animal id): 279 | > 32
isolate (source animal id): 280 | > 32
isolate (source animal id): 281 | > 32
isolate (source animal id): 282 | > 32
isolate (source animal id): 283 | > 32
isolate (source animal id): 284 | > 32
isolate (source animal id): 285 | > 32
isolate (source animal id): 286 | > 32
isolate (source animal id): 287 | > 32
isolate (source animal id): 288 | > 32
isolate (source animal id): 289 | > 32
isolate (source animal id): 290 | > 32
isolate (source animal id): 291 | > 32
isolate (source animal id): 292 | > 32
isolate (source animal id): 293 | > 32
isolate (source animal id): 294 | 32 (≈ 34.9 µM)
isolate (source animal id): 295 | > 32
isolate (source animal id): 296 | > 32
isolate (source animal id): 297 | > 32
isolate (source animal id): 298 | > 32
isolate (source animal id): 299 | > 32
isolate (source animal id): 300 | > 32
isolate (source animal id): 301 | > 32
isolate (source animal id): 302 | > 32
isolate (source animal id): 303 | > 32
isolate (source animal id): 304 | > 32
isolate (source animal id): 305 | > 32
isolate (source animal id): 306 | > 32
isolate (source animal id): 307 | > 32
isolate (source animal id): 308 | > 32
isolate (source animal id): 309 | > 32
isolate (source animal id): 310 | > 32
isolate (source animal id): 311 | > 32
isolate (source animal id): 312 | > 32
isolate (source animal id): 313 | > 32
isolate (source animal id): 314 | > 32
isolate (source animal id): 315 | > 32
isolate (source animal id): 316 | > 32
isolate (source animal id): 317 | > 32
isolate (source animal id): 318 | > 32
isolate (source animal id): 319 | > 32
isolate (source animal id): 320 | > 32
isolate (source animal id): 321 | > 32
isolate (source animal id): 322 | > 32
isolate (source animal id): 323 | > 32
isolate (source animal id): 324 | > 32
isolate (source animal id): 325 | > 32
isolate (source animal id): 326 | > 32
isolate (source animal id): 327 | > 32
isolate (source animal id): 328 | > 32
isolate (source animal id): 329 | > 32
isolate (source animal id): 330 | > 32
isolate (source animal id): 331 | > 32
isolate (source animal id): 332 | > 32
isolate (source animal id): 333 | > 32
isolate (source animal id): 334 | > 32
isolate (source animal id): 335 | > 32
isolate (source animal id): 336 | > 32
isolate (source animal id): 337 | > 32
isolate (source animal id): 338 | > 32
isolate (source animal id): 339 | > 32
isolate (source animal id): 340 | > 32
isolate (source animal id): 341 | > 32
